PubChem BioAssay AID504810 (National Center for Advancing Translational Sciences (NCATS), 2011)
Among all 330,000 compounds or so, about 670 (0.2%) were called active. Inconclusive means that the source gave no clear call. Such entries were picked first, then a sample of the others.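 Rule for the calls: active = activity change below a set negative limit, meaning inhibition stronger than a set level (cut at about -70% in these data); inconclusive = activity change between two set negative limits; inactive = the rest.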

By UniProt entry, the sequences of proteins in these tests, tags left out.
UniProt P16473, whole entry, looked up: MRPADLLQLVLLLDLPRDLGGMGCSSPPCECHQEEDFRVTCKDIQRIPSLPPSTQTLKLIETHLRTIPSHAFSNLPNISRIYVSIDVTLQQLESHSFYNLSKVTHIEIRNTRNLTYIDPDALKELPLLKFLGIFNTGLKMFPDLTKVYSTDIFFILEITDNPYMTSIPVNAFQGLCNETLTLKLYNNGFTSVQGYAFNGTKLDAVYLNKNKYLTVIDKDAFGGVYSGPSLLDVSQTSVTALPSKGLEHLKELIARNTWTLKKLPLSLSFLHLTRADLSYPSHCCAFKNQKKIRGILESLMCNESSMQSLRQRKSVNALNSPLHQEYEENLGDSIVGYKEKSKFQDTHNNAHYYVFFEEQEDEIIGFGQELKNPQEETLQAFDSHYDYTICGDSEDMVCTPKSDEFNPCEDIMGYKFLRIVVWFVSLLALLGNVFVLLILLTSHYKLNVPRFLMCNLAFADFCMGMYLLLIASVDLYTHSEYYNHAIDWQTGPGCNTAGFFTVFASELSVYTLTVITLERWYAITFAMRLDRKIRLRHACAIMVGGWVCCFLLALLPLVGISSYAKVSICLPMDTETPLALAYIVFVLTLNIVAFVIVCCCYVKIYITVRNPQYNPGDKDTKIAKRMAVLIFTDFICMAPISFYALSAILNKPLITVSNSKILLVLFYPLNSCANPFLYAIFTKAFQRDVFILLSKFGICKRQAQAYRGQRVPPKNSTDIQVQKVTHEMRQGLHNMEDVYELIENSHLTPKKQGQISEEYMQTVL

The compounds below were run against Thyrotropin receptor (Homo sapiens) (UniProt P16473) (assay: Antagonists of the Thyroid Stimulating Hormone Receptor: HTS campaign). Conditions: TSHR-expressing cells, TSH-stimulated cAMP HTRF, 2 h; at 11.5 µM; hits give low values.
Outline: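 Cell-based HTRF cAMP assay; TSHR cells + compound, TSH EC80 (4nM final), 2 h, 37 deg C. Lysis with anti-cAMP cryptate and cAMP-d2, 30 min RT, read 665/620 nm.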
% is set by controls: 0 for no effect and ±100 for the full control effect.

Activity change, negative = inhibition, inactive:
COc1cccc(CNC(=O)CCC2CCCN(c3cc(C)nc(N)n3)C2)c1 (stereo unspecified) -7.6%
CNS(=O)(=O)c1c(C)cc(C)c(N(C)S(=O)(=O)c2ccccc2)c1C 18%
Cc1nnc(SCC2=C(C(=O)O)N3C(=O)C(NC(=O)COc4ccccc4)C3SC2)s1 (stereo unspecified) -6.5%
Cc1[nH]n2c(=O)c3c(nc2c1-c1ccc(Cl)cc1)CCC3 -10.7%
COc1ccc(N2CCN(C(=O)COC(=O)c3ccc(OC(F)F)cc3)CC2)cc1 -14.7%
CCOC(=O)CN(C)C(=O)CCc1nnc(-c2ccsc2)o1 -0.388%
O=C(NC(=S)Nc1ccccc1Cl)c1ccco1 49.6%
CC12CCC(C(=O)N/N=C/c3ccc(O)cc3O)(OC1=O)C2(C)C (stereo unspecified) 9.38%
OC(CNCc1ccc(-c2ccccc2)cc1)c1ccccc1 (stereo unspecified) 2.36%
CC(=O)c1cccc(NC(=O)CSc2ccc(-c3sc(C)nc3C)nn2)c1 -17.4%
Fc1ccc(CN2CCN(c3ncnc4scc(-c5ccc(F)cc5)c34)CC2)cc1 0.0613%
CC(=O)C[C@@H](O)CC(=O)[C@H]1OC(=O)CCCCCCCCc2ccccc21 -16.3%

Activity change, negative = inhibition, inconclusive:
CS(=O)(=O)c1ccc(C(=O)OCC(=O)NC(=O)C2CCCCC2)cc1[N+](=O)[O-] -54%
C=CCn1c(C)c(/C=C/c2cc[n+](C)cc2)c2ccccc21 -62.8%
O=C(COC(=O)C12CC3CC(CC(C3)C1)C2)NC12CC3CC(CC(C3)C1)C2 -60.5%
CSCc1cc(N2CCOCC2)nc(SCc2ccc(Cl)cc2Cl)n1 -57.1%
CN(C)S(=O)(=O)N1CCC(Oc2cccc(C(=O)NCCC3=CCCCC3)c2)CC1 -60.4%
CC(=O)NC(C)Cc1cn(Cc2ccccc2)c2ccccc12 (stereo unspecified) -60%
c1ccc2c(CSc3ncnc4nc[nH]c34)cccc2c1 -56.4%
CCC(C)Sc1ccc(-c2nc3ccc(C)cn3c2NCc2ccccc2)cc1OC (stereo unspecified) -68.3%
COc1cc(/C=C2/SC(=O)N(CC(=O)N3CCCC3)C2=O)ccc1Oc1ccc([N+](=O)[O-])cn1 -62.4%
O=C(Nc1cccc(Cl)c1)Nc1ccc(Br)cc1F -53.5%
Cc1onc(-c2ccccc2Cl)c1C(=O)NC(=S)Nc1ccc(C(C)C)cc1 -50.3%
COc1cc(NC(=O)c2cc3ccccc3cc2O)c(OC)cc1Cl -54.9%
CC(C)Cn1c(N)c(C(=O)COC(=O)CCc2nc3ccccc3c(=O)[nH]2)c(=O)n(C)c1=O -51.5%
O=C(Nc1nc(-c2cccs2)cs1)c1ccc(S(=O)(=O)N2CCCC2)cc1 -51.5%
O=C1CSc2ccc(C(=O)Nc3cccc(S(=O)(=O)Nc4ccc(Br)cc4)c3)cc2N1 -60.3%
COc1ccc(-c2ccc(SCc3ccccn3)nn2)cc1OC -66.6%
N#CC1=C(N)NC(SCC(=O)c2ccc(Br)cc2)=C(C#N)C12CCCCC2 -51.6%
O=C(Nc1ccccc1)c1cnc(-c2ccccc2)nc1-c1ccccc1 -52.2%
COc1ccc(-c2nnc(CSc3nc4ccccc4c(=O)n3CC3CCCO3)o2)cc1OC (stereo unspecified) -61.7%
Cc1noc(C)c1CSc1nc2ccccc2nc1NS(=O)(=O)c1ccc(Cl)cc1 -62.2%
CS(=O)(=O)c1sc(C#N)c2c1C(=O)CC(c1ccccc1)C2 (stereo unspecified) -53.4%
c1ccc(-c2cc3c(N4CCN(c5ncccn5)CC4)ncnc3s2)cc1 -55.2%
CC1(C)CC(=O)C2=C(C1)OC1=C(C(=O)CC(C)(C)C1)C2c1ccc(O)cc1O -63.6%
Cc1ccc(NC(=O)COc2ccccc2C(N)=O)cc1S(=O)(=O)N1CCCCCC1 -68.3%
O=C(CSc1nc(-c2ccc(Cl)cc2)cs1)Nc1cccc([N+](=O)[O-])c1 -53.2%
Cc1cccc(NC(=O)CN(c2ccc(F)cc2)S(C)(=O)=O)c1 -62.1%
Cc1ccc(C(=O)Nc2ccc(C)c(S(=O)(=O)Nc3ccccc3Cl)c2)s1 -53.2%

Activity change, negative = inhibition, active:
CC(C)(C)C(=O)NC(=S)NNC(=O)c1sc2ccccc2c1Cl -93.9%
O=S(=O)(Nc1cccc(-c2ccc(N3CCCCCC3)nn2)c1)c1ccc(F)cc1 -83.1%
Cc1cccc(CNS(=O)(=O)c2csc(C(N)=O)c2)c1 -70.2%
CCc1ccc(NC(=O)c2nc(S(=O)(=O)Cc3ccccc3)ncc2Cl)cc1 -73.9%
CCOc1ccccc1-n1c(=S)sc2c(=O)n(-c3ccc(F)cc3)c(SCC(=O)O)nc21 -70.9%
N#C/C(=C\c1ccc(N2CCOCC2)o1)c1ccccc1 -81.9%
Cc1cc2nc3ccc(=[N+](C)C)cc-3sc2cc1N -108%
Nc1nc2nc[nH]c2c(=O)[nH]1 -71.1%
COc1ccc(-n2nc(C(=O)NCC(=O)NCCCN3CCN(C)CC3)c3ccccc3c2=O)cc1 -100%
C(=N\Nc1nc2ccccc2[nH]1)/c1ccncc1 -87.8%
COc1cc(NC(=O)C(C)C)ccc1NC(=O)c1ccco1 -93.4%
O=C(CSc1cccc2cccnc12)N/N=C/c1ccc(O)cc1 -77.5%
COc1cc(NS(=O)(=O)c2ccc(C)cc2C)cc(OC)c1OC -87.3%
Cc1ccc(CN2C(=O)c3ccccc3Sc3ccc(C(=O)NCCCN4CCOCC4)cc32)cc1 -138%
Cc1ccc(S(=O)(=O)N(Cc2ccccc2)c2ccccc2C(=O)N2CCCCC2)cc1 -78.4%
COc1ccc(-c2cc(-c3nc4ccccn4c3NCc3ccccc3)ccc2OC)cc1 -96.7%
Cc1ccc(S(=O)(=O)NC(=O)Nc2ccc(N(C)C)cc2)cc1 -75.4%

3 consecutive entries from above, quoted:
Activity change, negative = inhibition, active:
CCc1ccc(NC(=O)c2nc(S(=O)(=O)Cc3ccccc3)ncc2Cl)cc1 -73.9%
CCOc1ccccc1-n1c(=S)sc2c(=O)n(-c3ccc(F)cc3)c(SCC(=O)O)nc21 -70.9%
N#C/C(=C\c1ccc(N2CCOCC2)o1)c1ccccc1 -81.9%
